The target of the experiment is T1, Flag-PTHR1-YFP (UniProt Q03431 27-593).
T1 sequence (looked up): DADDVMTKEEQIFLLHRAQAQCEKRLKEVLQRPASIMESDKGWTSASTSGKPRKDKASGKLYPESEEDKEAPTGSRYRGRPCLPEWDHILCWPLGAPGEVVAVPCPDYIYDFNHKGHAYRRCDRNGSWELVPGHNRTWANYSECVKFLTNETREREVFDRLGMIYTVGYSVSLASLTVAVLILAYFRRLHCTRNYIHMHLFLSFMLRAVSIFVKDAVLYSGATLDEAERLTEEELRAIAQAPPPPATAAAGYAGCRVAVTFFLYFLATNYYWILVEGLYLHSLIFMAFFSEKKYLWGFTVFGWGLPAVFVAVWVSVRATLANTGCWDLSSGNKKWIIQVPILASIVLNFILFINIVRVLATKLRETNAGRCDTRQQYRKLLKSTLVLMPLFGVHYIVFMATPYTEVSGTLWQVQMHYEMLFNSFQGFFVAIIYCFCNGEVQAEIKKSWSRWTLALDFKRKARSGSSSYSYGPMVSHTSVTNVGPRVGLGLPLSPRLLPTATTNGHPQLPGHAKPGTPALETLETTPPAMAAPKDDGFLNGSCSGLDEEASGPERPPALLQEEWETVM
The experiment in a line: BRET between beta-arrestin2-Rluc and Flag-PTHR1-YFP in co-transfected HEK293T cells, recruitment induced by agonist peptides.

Chains of the proteins cited; added tags and fusions are not shown.
UniProt P32121: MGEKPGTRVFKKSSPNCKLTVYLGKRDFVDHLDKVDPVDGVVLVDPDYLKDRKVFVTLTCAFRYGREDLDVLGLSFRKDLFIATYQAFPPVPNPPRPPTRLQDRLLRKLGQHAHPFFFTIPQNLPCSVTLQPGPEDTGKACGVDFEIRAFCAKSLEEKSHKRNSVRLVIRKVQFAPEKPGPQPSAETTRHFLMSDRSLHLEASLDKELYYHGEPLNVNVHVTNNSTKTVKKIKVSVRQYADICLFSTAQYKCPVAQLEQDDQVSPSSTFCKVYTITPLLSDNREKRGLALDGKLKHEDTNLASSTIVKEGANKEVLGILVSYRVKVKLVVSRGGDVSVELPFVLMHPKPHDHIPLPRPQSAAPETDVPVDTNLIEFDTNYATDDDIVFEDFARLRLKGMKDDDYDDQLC

These are yes or no findings as the source states them, for the method shown. Some binding calls cover weakened binding; strength is not graded here.

Consider “beta-arrestin2-Rluc (from UniProt P32121 1-409)”, for which the binding entry was “binds”.

For the origin of these results see US20220298217A1 (FLAGSHIP PIONEERING INNOVATIONS VI, published 2022).
